By UniProt entry, the sequences of proteins in these tests, tags left out. Where a name states a change or a piece, a line headed by the entry shows the natural chain unless it says otherwise.
UniProt P18054: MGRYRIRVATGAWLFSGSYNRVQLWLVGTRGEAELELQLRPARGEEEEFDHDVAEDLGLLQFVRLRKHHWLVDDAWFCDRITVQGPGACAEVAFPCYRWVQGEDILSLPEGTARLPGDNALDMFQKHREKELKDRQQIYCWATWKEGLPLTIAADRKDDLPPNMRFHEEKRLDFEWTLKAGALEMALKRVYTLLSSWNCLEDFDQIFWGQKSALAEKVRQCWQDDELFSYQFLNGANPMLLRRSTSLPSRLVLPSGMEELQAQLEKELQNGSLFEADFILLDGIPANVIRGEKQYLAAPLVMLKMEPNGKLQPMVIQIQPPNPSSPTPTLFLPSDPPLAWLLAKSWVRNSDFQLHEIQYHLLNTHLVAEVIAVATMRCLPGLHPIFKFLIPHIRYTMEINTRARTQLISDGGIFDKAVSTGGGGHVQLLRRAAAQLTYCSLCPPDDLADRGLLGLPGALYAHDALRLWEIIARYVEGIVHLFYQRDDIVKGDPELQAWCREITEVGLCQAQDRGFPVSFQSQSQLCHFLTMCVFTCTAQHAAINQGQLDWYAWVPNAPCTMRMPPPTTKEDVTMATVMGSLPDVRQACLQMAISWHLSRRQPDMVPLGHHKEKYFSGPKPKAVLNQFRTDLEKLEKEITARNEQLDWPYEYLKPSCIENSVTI

The campaign covered roughly 580,000 compounds. About 6,100 (1.1%) were called active. This list was built around the results that the source calls inconclusive (neither active nor inactive); the mix of calls is not that of the screen. Calls come from the whole dose curve; as a rule, active = well fitted inhibition curve with a large enough effect; inconclusive = small, poorly fitted or top-dose-only effect, or another doubt; inactive = no such curve, though single readings can be large or run the other way. Potencies beside an inconclusive call are fits to weak or partial responses and may not hold up.
The compounds below were run against Polyunsaturated fatty acid lipoxygenase ALOX12 (Homo sapiens) (UniProt P18054) (assay: Primary qHTS assay for inhibitors of human arachidonate 12S-lipoxygenase (ALOX12): Round 2). Conditions: purified 12hLO, xylenol orange hydroperoxide absorbance; activity change, negative = inhibition: at 108 µM (top of the series) unless noted.
Method in brief: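 Hydroperoxide product was detected by ferrous iron/xylenol orange as the 573 to 405 nm absorbance ratio. Arachidonic acid at 40 uM (final) was turned over for 30 min at room temperature by 150 nM human 12hLO, pH 7.0 Hepes buffer, after 15 min compound preincubation.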
In the case of `CCOC1=C/C(=C/c2c(N)n3nc(-c4ccccc4)sc3nc2=O)C=CC1=O`, the Potency is reported as inconclusive: 35.5 µM [inhibitor, partial curve]. In the case of `Cc1cc2ccccc2n1CCNC(=O)Cc1cccc2ccccc12`, the Potency is reported as inconclusive: 89.1 µM [inhibitor, partial curve, poor fit]. In the case of `COc1cccc(C2c3c(oc4ccccc4c3=O)C(=O)N2CCCN(C)C)c1OC` (centres undefined), the Potency is reported as inconclusive: 39.8 µM [inhibitor, partial curve, poor fit]. In the case of `CN1C[C@H](O)C[C@H]1c1nnc2n1CCN(C(=O)CC1CCCCC1)CC2`, the Potency is reported as inconclusive: 3.16 µM [inhibitor, full curve, poor fit]. With `CN1CC(=O)N(C2CCCNC2)Cc2c(NCC(C)(C)C)ncnc21` (centres undefined) the Potency was inconclusive: 3.16 µM [inhibitor, full curve, poor fit]. With `COc1ccccc1N1CCN(CC(=O)Nc2ccc(S(=O)(=O)N3CCCCCC3)cc2)CC1` the “activity change, negative = inhibition” value was inactive: 28.9%. With `Cc1ccc(C2Nc3ccccc3-n3c(-c4ccccc4)c4c(=O)n(C)c(=O)n(C)c4c32)cc1` (centres undefined) the “activity change, negative = inhibition” value was inactive: -16.6%. `COc1ccc(C(=O)/C=C(/C)N(C)C)cc1` was tested, and the Potency was inconclusive: 39.8 µM [inhibitor, partial curve, poor fit]. For `C=CCNc1ccc(N2C(=O)C3CCC(C)CC3C2=O)cc1[N+](=O)[O-]` (centres undefined), the Potency was inconclusive: 44.7 µM [inhibitor, partial curve, poor fit]. `CCc1c(C)sc(NC(=O)Cc2ccccc2C)c1C(=O)N1CCOCC1` was tested, and the Potency was inconclusive: 70.8 µM [inhibitor, partial curve, poor fit]. For `CC(=O)Nc1ccc(SCCS(=O)c2ccccc2)cc1` (centres undefined), the Potency was inconclusive: 39.8 µM [inhibitor, partial curve, poor fit]. With `S=C(NCCC(c1ccccc1)c1ccccc1)Nc1cccc(Cl)c1` the Potency was active: 22.4 µM. With `COc1ccc(CNC(=O)c2ccc(CNS(=O)(=O)c3ccc(OC)cc3)cc2)cc1` the “activity change, negative = inhibition” value was inactive: -8.08%. In the case of `Cc1[nH]c(C=C2C(=O)Nc3ccccc32)c(C)c1CCC(=O)O`, the Potency is reported as inconclusive: 4.32 µM [inhibitor, partial curve, poor fit]. For `O=C(COC(=O)c1cc(-c2ccc(F)cc2)nc2ccccc12)NC1CC1`, the “activity change, negative = inhibition” value was inactive: -9.78%. With `COc1ccc(C(c2nnnn2C2CCCCC2)N2CCN(C/C=C/c3ccccc3)CC2)cc1` (centres undefined) the Potency was inconclusive: 112 µM [inhibitor, single point]. With `CC(/C=N/NC(=O)CSc1nc2ccccc2n1C)=C\c1ccco1` the “activity change, negative = inhibition” value was inactive: -26.4%. `Cn1c(=O)c2c(nc(SC3C(=O)CC(C)(C)CC3=O)n2C)n(C)c1=O` was tested, and the Potency was inconclusive: 17.8 µM [inhibitor, full curve]. With `CCOC(=O)C1C(=O)C=C(/C=C/c2ccccc2)CC1c1ccccc1` (centres undefined) the Potency was inconclusive: 79.4 µM [inhibitor, single point]. For `CCOc1ccccc1NC(=O)Cc1c(C)[nH]n(-c2nc(-c3ccc(Cl)cc3)cs2)c1=O`, the “activity change, negative = inhibition” value was inactive: 39.2%. With `COc1ccc2cc(C(=O)NC(CC(C)C)C(=O)O)ccc2c1` (centres undefined) the Potency was inconclusive: 89.1 µM [inhibitor, single point]. With `COCCOC(=O)Cn1nnc2sc(-c3ccccc3)cc2c1=O` the Potency was inconclusive: 100 µM [inhibitor, partial curve, poor fit]. In the case of `CCc1nnc(NC(=O)C2CC(=O)N(c3n[nH]c4cc(Br)ccc34)C2)s1` (centres undefined), the “activity change, negative = inhibition” value is reported as inactive: 6.53%. With `CCN1C(=O)[C@@H]2[C@@H](c3ccc(SC4CCCCC4)cc3)N3CCCC[C@@]3(C(=O)OC)[C@@H]2C1=O` the Potency was active: 39.8 µM. For `COc1cccc(-c2ccc3c(c2)N(Cc2cccc(F)c2)C(=O)C(C)S3)c1` (centres undefined), the “activity change, negative = inhibition” value was inactive: 0.516%. For `CCOC(=O)c1ccc(NC(=O)CC2Nc3cc(C)c(C)cc3NC2=O)cc1` (centres undefined), the Potency was inconclusive: 35.5 µM [inhibitor, partial curve, poor fit]. With `O=C(CC1CCCCC1)Nc1ccc(-c2nc3ccccc3s2)cc1` the Potency was inconclusive: 0.398 µM [inhibitor, full curve, poor fit]. In the case of `Cn1c(-c2ccccc2)c[n+]2c1-c1ccccc1C2`, the “activity change, negative = inhibition” value is reported as inactive: -1.98%. With `COc1cc(OC)cc(C(=O)N[C@H](C(=O)Nc2nc(-c3ccc(F)c(F)c3)cs2)C(C)C)c1` the Potency was inconclusive: 141 µM [inhibitor, partial curve, poor fit]. `Cc1occc1C(=O)Nc1nc(CC(=O)Nc2ccccc2)cs1` was tested, and the Potency was inconclusive: 44.7 µM [inhibitor, single point]. For `Clc1ccc(OCCNCCc2ccccc2)cc1`, the Potency was inconclusive: 3.98 µM [inhibitor, full curve, poor fit]. In the case of `Cc1cc(-c2n[nH]c(=S)n2/N=C/c2cccc(O)c2)n[nH]1`, the Potency is reported as inconclusive: 56.2 µM [inhibitor, partial curve, poor fit]. `Cc1cc(NC(=O)c2ccccc2NS(=O)(=O)c2c(C)c(C)cc(C)c2C)no1` was tested, and the “activity change, negative = inhibition” value was inactive: -8.38%. With `O=C(COc1ccc(C(=S)N2CCOCC2)cc1)Nc1ccccc1C(F)(F)F` the Potency was inconclusive: 126 µM [inhibitor, partial curve, poor fit]. `COc1c(C(=O)NC(=S)Nc2nnn(C)n2)cc2ccccc2c1Br` was tested, and the “activity change, negative = inhibition” value was inactive: -4.17%. In the case of `O=C(Nc1cccnc1Cl)c1ccc(=O)oc1`, the Potency is reported as inconclusive: 35.5 µM [inhibitor, partial curve]. With `COc1ccc(-c2cc(=O)oc3c(O)c(O)ccc23)cc1` the Potency was active: 1.12 µM. For `CN(C)S(=O)(=O)c1cccc(C(=O)C2=C3SC=C(c4ccccc4)N3CC2)c1`, the “activity change, negative = inhibition” value was inactive: -5.6%. `O=S(=O)(N/N=C\C=C\c1ccccc1)c1ccc(Cl)cc1` was tested, and the Potency was inconclusive: 44.7 µM [inhibitor, partial curve, poor fit]. `CC(=O)N1CCN(C(=O)c2ccc3nc(C)c(C)nc3c2)CC1` was tested, and the “activity change, negative = inhibition” value was inactive: -20.2%. In the case of `Fc1cccc(-c2cc3cnc(Nc4cccc(C(F)(F)F)c4)cc3[nH]2)c1`, the Potency is reported as inconclusive: 44.7 µM [inhibitor, partial curve, poor fit]. For `CCOc1cc(N2CCOCC2)c(OCC)cc1NC(=O)COC(=O)c1ccc(OC)c([N+](=O)[O-])c1`, the “activity change, negative = inhibition” value was inactive: 4.48%. For `C=CCn1sc(N)c(C(=O)OCC)c1=S`, the “activity change, negative = inhibition” value was inactive: -27.4%. In the case of `COc1cccc(CN2CCn3c(nnc3[C@@H]3C[C@@H](O)CN3C)C2)c1OC`, the Potency is reported as inconclusive: 11.2 µM [inhibitor, partial curve].
% is set by controls: 0 for no effect and ±100 for the full control effect; potency is the fitted concentration of half-maximal effect.
